Changes are numbered by the printed parent chain. These are yes or no findings as the source states them, for the method shown. Some results given as binding are weak or reduced against the parent protein; the word gives no strength. Values belong to the binder of their own block, whether it stands above or below them.
Key:
[1] = target: human MYCT1 (hMYCT1) (human) (UniProt Q8N699); assay: SPR, antibody captured via anti-human Fc IgG, MYCT1 as analyte
[2] = target: human MYCT1 (hMYCT1) (human) (UniProt Q8N699); assay: SPR full kinetics, steady-state affinity model
[3] = target: human MYCT1 (hMYCT1) (human) (UniProt Q8N699); assay: SPR koff ranking, 1:1 binding model
[4] = target: human MYCT1 (hMYCT1) (human) (UniProt Q8N699); assay: SPR full kinetics, 1:1 binding model

By UniProt entry, the sequences of proteins in these tests, tags left out. Where a name states a change or a piece, a line headed by the entry shows the natural chain unless it says otherwise.
UniProt Q8N699: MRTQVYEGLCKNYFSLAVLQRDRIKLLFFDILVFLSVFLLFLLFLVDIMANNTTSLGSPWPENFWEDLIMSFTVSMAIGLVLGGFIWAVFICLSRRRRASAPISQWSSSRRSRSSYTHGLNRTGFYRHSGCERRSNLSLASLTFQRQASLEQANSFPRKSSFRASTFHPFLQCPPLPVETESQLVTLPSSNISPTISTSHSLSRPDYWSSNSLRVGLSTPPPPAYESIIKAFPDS

binding [1]: binds
B1: 2B4-z2-uIgG1K (antibody, V domains shown)
VH: QVQLVQSGAEVKKPGASVKVSCKASGYTFTDYNMHWVRQAPGQGLEWMGYINPNNGGSSYNRKFKGRVTMTTDTSTSTAYMELRSLRSDDTAVYYCATRFDVWGQGTTVTVSS
VL: DVVMTQSPLSLPVTLGQPASISCKSSQSLLFSDGKTYLNWLQQRPGQSPRRLIYLVSKLDSGVPDRFSGSGSGTDFTLKISRVEAEDVGVYYCWQGTHFPQTFGGGTKVEIK

binding [2]: binds
B2: 2B4-z8-p7-uIgG1K (antibody, V domains shown)
VH: B1 VH with M48I, N55S
VL: B1 VL with G34A

binding [1]: binds
B3: 2B4-z8-uIgG1K (antibody, V domains shown)
VH: B1 VH with M48I
VL: B1 VL

binding [2]: binds
B4: 2B4-z2-p7-uIgG1K (antibody, V domains shown)
VH: B1 VH with N55S
VL: B1 VL with G34A

binding [3]: binds
B5: 11B6-z12-uIgG1K (antibody, V domains shown)
VH: EVQLVESGGGLVKPGGSLRLSCAASGFTFSDFGIHWVRQAPGKGLEWVGYISSGSRTIHYADTVKGRFTISRDNAKNSLYLQMNSLRAEDTAIYYCARRDWDPEWLAYWGQGTLVTVSS
VL: DVVMTQSPLSLPVTPGEPASISCRSSLSLVHSNGHTYLHWYLQKPGQSPKLLIYKVSNRFSGVPDRFSGSGSGTDFTLKIRRVEAEDVGVYFCSQSTHVPFTFGQGTKLEIK

binding [3]: binds
B6: 11B6-z10-uIgG1K (antibody, V domains shown)
VH: B5 VH with I93V
VL: B5 VL with K50Q, R81S

binding [4]: binds
B7: 11B6-z16-p3-uIgG1K (antibody, V domains shown)
VH: B5 VH with I93V
VL: B5 VL with V2I, G34A, R81S

binding [4]: binds
B8: 11B6-z12-p3-uIgG1K (antibody, V domains shown)
VH: B5 VH
VL: B5 VL with G34A

binding [4]: binds
B9: 11B6-z10-p3-uIgG1K (antibody, V domains shown)
VH: B5 VH with I93V
VL: B5 VL with G34A, K50Q, R81S

Source: patent publication EP4737482A1
